The target in experiment [1] is FOXO3-DBD (residues 155–251) (human) (UniProt O43524). Nature of the experiment: SEC-MALS; Superdex 200 10/300 GL; 20 mM HEPES pH 7.5, 150 mM NaCl, 10 mM MgCl2; proteins injected at 5–7 mg/ml, 0.4 ml/min; protein alone, without DNA; both purified. (In gel filtration, larger molecules generally elute earlier.)
The target of experiment [2] is FOXL2-DBD (residues 52–148 of human FOXL2) (human) (UniProt P58012). Nature of the experiment: crystal structure; FOXL2-DBD with 16 bp p53-DNA, two DBDs on one DNA; 6% ethylene glycol, 0.1 M citric acid pH 3.5, 15% PEG 6000; 3.15 Å; both purified.
The target is the same in experiment [3]. Nature of the experiment: SEC-MALS; Superdex 200 10/300 GL; 20 mM HEPES pH 7.5, 150 mM NaCl, 10 mM MgCl2; proteins injected at 5–7 mg/ml, 0.4 ml/min; protein alone, without DNA; both purified.

Protein sequences, listed by entry. Tags and fused reporters are not part of them. Residues count along the entry.
UniProt O43524, residues 155-251: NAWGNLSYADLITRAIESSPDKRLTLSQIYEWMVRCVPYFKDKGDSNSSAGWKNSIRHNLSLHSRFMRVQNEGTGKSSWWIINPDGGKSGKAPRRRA

Results are given in words; binding and its absence hold for the method and conditions named.

As for “FOXO3-DBD (residues 155–251) (from UniProt O43524 155-251) (domain or fragment)”, in experiment [1], the binding entry is given as “no binding (tested: 5–7 mg/ml)”.

B1: FOXL2-DBD (residues 52–148 of human FOXL2) (domain or fragment, UniProt P58012 52-148)
chain: AQKPPYSYVALIAMAIRESAEKRLTLSGIYQYIIAKFPFYEKNKKGWQNSIRHNLSLNECFIKVPREGGGERKGNYWTLDPACEDMFEKGNYRRRRR
Take B1: the binding result in experiment [2] is “no binding”; in experiment [3] it was “no binding (tested: 5–7 mg/ml)”.

The record behind these values is article PMC9410875, “FOXL2 and FOXA1 cooperatively assemble on the TP53 promoter in alternative dimer configurations”.
